Drawing on publication PMC9734138, “Structure of the AlgKX modification and secretion complex required for alginate production and biofilm attachment in Pseudomonas aeruginosa” (Nature Communications, 2022), this text covers binding for 1 molecule.

Amino acid sequences for entries named in this document (tags omitted). Residues count along the entry.
UniProt Q51371, residues 36-543: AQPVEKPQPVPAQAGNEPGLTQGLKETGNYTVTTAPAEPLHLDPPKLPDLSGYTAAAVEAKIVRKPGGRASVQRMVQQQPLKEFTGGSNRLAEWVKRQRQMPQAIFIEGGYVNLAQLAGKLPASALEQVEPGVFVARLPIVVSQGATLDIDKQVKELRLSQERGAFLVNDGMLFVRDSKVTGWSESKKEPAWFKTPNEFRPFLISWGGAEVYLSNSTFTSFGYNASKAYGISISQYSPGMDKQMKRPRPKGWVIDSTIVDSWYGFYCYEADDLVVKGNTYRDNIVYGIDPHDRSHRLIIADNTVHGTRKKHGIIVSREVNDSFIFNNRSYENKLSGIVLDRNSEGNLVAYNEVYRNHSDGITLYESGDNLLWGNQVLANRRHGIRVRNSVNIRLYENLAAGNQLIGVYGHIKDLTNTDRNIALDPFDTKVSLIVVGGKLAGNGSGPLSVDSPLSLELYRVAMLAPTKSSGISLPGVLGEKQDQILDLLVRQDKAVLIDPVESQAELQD

In the assay the target is VSV-G-tagged AlgGPa (Pseudomonas aeruginosa PAO1) (UniProt Q51371). The assay can be described thus: co-IP.

Results are given in words; binding and its absence hold for the method and conditions named. Binding seen in cells or lysates may run through a third protein.

B1: AlgKPa (protein, UniProt P96956 28-475)
chain: CAGLPDQRLAQEALERGDLATAQSNYQALAAMGYADAQVGLADMQVASGDSAQQAKAEKLYREAAQTSPRARARLGKWLAAKPGASDAEHREAERLLSQAFEQGEDSALVPLIVLYLQYPQSWPEIDPQQRIDQWRARGLPQADLAQIILYRTQGTYAQHLGEIEQVCQRWLRRMDVCWYELATVYQMQGNAEKQKVLLEQLRAAYKAGRVPGERVDSVAGVLADGELGQPDPQTAQALLEEIAPSYPAAWVSLAKLLYDYPDQGDLEKMLGYLKNAQDAAQPRAELLLGRLYYDGKWAPQDPRKAERHLLKAAASEPQANYYLGQIYRRGFLGKVYPQKAVDHLILAARAGQASADMALAQLWSQGRGIQPNRVNAYVFGQLAVQQQVPQASDLLGQIEAQLPPAERSQAQQLLKREQQSRGNNWQATVSLLQSQDSPINEEEPESL
B1: the binding result is listed as “no binding”.
